Experimental data taken from the supplement of paper PMC12067093, “Discovery and optimisation of a covalent ligand for TRIM25 and its application to targeted protein ubiquitination” (Chemical Science, 2025).
The list shows a part of the results.

Sequences of proteins named here, by UniProt entry; tags and fusion partners are left off. A change or cut given only in a name is not applied to a line headed by its entry.
UniProt P29144: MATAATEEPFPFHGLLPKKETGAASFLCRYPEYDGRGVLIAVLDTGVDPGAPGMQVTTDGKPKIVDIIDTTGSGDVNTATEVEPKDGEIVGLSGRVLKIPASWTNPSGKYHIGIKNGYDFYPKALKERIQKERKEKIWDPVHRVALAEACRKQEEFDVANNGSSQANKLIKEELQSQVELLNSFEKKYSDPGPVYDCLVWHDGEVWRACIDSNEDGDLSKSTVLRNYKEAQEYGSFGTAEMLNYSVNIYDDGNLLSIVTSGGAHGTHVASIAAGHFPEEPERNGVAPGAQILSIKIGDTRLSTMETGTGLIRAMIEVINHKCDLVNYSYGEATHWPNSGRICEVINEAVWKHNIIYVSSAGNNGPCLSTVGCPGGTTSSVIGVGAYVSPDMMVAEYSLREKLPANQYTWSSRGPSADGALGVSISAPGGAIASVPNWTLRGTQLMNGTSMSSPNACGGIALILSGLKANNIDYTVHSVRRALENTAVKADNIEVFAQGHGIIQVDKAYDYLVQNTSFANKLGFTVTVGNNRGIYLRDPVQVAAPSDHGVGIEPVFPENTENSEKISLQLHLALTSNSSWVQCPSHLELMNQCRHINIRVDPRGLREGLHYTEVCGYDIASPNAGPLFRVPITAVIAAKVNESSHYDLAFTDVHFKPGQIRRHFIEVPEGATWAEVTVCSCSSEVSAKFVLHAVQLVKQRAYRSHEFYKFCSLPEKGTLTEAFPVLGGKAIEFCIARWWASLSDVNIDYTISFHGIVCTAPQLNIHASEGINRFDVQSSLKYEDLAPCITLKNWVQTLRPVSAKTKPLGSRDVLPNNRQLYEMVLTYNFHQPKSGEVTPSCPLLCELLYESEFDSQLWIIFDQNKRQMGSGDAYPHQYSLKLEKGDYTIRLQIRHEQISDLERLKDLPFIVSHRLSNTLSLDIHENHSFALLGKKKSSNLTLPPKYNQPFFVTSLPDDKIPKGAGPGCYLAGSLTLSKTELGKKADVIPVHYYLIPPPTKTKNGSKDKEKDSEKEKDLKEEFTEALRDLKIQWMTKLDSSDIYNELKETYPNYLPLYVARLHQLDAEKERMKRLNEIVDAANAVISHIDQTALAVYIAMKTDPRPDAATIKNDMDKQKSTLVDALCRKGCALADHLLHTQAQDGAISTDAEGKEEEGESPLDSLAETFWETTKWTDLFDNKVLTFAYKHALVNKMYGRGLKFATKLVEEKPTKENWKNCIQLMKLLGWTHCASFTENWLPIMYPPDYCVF
UniProt A5PLN9: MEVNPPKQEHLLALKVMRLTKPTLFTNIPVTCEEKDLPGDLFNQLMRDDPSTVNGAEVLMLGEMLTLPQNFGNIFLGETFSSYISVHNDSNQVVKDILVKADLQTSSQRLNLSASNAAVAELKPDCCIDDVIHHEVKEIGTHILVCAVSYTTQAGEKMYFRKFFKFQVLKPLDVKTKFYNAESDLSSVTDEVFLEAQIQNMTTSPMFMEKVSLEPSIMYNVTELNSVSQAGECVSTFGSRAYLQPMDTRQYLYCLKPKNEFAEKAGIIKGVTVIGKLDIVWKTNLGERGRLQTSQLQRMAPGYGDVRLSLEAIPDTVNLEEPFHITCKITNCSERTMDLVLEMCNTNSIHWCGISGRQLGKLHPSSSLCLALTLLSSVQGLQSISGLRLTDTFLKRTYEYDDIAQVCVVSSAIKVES
UniProt Q13595: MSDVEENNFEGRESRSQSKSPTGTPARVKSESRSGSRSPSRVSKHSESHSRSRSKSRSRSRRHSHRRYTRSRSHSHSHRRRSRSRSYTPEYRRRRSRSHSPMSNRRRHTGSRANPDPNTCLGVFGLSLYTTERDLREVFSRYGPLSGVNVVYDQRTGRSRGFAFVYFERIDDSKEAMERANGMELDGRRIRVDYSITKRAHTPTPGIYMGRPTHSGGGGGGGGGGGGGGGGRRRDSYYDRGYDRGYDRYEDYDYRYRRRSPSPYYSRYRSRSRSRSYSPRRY
UniProt Q9UPN9: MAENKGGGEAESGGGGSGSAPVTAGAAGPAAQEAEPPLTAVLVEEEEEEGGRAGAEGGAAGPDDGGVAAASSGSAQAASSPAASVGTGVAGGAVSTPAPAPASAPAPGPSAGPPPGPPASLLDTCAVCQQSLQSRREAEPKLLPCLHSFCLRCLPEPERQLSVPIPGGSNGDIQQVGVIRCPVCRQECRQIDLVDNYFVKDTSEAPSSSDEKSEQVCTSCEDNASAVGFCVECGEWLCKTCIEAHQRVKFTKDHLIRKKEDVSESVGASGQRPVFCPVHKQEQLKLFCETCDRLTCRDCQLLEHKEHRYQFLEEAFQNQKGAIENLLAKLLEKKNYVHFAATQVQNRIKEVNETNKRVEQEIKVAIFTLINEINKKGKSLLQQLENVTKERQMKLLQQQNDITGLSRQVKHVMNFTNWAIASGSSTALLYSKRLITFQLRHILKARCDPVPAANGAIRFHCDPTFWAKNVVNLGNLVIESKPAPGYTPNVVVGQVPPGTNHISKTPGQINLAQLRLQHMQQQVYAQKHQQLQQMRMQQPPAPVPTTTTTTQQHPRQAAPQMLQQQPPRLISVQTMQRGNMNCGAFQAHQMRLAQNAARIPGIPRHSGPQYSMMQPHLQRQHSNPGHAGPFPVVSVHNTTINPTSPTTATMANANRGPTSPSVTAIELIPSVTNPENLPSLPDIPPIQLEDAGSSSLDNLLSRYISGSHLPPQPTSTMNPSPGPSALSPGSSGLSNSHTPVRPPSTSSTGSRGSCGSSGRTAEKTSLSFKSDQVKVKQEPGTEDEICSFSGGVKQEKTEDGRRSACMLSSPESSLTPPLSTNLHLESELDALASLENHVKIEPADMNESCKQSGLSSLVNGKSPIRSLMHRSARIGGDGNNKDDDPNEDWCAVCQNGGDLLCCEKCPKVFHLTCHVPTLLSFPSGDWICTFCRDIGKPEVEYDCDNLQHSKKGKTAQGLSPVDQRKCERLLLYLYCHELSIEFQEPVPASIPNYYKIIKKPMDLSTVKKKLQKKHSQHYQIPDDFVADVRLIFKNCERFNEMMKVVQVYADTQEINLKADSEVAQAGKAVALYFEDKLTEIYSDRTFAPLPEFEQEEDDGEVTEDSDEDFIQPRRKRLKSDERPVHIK
UniProt Q15650: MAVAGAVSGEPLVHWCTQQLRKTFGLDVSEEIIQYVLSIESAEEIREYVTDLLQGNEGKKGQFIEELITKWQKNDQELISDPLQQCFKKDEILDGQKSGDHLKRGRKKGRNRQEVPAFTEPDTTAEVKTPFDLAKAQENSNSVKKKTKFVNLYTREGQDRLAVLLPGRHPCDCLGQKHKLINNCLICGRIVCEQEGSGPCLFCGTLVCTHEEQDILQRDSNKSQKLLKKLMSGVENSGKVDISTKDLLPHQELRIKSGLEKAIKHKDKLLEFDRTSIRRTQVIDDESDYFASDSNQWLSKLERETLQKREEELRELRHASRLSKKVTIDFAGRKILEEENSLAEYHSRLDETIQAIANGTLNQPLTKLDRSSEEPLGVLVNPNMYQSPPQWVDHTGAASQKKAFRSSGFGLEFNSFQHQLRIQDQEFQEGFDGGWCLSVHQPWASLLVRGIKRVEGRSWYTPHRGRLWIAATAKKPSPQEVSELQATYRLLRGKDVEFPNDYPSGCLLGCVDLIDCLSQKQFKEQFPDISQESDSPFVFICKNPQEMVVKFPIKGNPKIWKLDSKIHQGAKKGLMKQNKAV
UniProt O00635: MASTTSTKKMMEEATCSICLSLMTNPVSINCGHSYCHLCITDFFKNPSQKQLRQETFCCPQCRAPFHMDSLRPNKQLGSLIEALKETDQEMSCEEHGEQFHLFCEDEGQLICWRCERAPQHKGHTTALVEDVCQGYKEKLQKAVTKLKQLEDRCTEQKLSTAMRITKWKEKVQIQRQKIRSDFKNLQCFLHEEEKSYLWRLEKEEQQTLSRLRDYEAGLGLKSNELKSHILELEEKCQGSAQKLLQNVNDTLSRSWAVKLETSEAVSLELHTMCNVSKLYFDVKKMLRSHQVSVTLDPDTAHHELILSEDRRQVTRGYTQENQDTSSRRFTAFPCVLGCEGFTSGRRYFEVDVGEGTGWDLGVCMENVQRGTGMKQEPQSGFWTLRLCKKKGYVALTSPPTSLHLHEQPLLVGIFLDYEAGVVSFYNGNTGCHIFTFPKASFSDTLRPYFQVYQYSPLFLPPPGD
UniProt P19474, whole entry, looked up: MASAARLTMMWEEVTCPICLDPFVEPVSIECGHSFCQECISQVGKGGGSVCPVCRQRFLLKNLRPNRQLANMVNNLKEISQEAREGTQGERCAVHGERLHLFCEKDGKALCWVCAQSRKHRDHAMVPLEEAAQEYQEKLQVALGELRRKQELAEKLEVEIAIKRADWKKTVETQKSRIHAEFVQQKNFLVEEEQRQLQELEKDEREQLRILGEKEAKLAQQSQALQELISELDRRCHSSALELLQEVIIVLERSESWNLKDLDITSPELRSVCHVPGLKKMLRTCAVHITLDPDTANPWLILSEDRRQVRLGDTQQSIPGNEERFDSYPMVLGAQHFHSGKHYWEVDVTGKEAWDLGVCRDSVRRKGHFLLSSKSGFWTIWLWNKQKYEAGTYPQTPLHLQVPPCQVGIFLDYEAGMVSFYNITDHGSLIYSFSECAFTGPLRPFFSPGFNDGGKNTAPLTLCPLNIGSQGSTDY
UniProt Q7L0Y3: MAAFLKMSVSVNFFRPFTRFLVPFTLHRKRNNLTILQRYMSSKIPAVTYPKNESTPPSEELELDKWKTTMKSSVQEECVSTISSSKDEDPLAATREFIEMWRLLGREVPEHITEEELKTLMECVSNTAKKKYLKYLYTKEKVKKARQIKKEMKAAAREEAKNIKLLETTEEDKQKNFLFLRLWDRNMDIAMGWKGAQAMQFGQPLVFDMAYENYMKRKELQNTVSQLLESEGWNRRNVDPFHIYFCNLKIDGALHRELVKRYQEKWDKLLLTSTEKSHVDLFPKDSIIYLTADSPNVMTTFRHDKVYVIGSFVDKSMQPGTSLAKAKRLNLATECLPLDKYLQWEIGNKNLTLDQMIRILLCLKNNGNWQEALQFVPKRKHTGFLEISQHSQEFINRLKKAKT
UniProt Q15654: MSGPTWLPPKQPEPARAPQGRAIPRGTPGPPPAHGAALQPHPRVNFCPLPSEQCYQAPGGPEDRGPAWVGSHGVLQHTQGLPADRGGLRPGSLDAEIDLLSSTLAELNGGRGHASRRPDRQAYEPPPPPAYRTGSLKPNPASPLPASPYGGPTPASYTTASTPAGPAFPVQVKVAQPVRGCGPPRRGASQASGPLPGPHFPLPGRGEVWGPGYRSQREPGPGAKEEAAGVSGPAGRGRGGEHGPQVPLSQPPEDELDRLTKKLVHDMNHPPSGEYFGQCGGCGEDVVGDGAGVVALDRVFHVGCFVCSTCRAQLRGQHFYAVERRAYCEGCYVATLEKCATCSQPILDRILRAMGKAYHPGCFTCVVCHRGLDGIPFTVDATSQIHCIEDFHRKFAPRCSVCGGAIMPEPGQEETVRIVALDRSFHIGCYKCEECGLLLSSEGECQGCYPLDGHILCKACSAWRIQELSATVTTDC
UniProt Q14258, whole entry, looked up: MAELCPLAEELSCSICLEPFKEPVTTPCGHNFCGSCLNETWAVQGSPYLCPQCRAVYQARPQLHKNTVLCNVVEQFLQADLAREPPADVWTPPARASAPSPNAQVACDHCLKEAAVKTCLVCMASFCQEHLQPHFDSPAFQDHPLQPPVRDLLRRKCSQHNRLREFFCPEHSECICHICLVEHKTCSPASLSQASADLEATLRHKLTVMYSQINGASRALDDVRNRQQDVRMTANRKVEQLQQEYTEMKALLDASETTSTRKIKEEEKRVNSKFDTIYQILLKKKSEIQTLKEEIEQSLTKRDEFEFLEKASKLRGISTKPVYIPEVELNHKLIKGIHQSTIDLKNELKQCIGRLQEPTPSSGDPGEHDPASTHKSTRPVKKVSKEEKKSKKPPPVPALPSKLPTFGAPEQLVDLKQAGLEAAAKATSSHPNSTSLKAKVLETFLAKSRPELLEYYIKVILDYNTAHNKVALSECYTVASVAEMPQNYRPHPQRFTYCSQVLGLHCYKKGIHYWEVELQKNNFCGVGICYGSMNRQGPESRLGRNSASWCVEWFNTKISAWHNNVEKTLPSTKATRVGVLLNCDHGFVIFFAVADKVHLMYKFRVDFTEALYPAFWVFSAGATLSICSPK

Compound: Cc1cc(ccc1-c1ccccc1)C(=O)N1CCCN(CC1)C(=O)CCl [compound 10]
Assay: probe-labelled cysteine peptide fold change vs DMSO (competition) (log2 fold change); higher = less target engagement (more negative = stronger competition)
Conditions: THP-1, incubation time: 4 h
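Note: competitive profiling in live THP-1 cells: cysteine peptides tagged with an iodoacetamide desthiobiotin (IA-DTB) probe, intensity after compound treatment relative to DMSO-treated cells.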

| Target | probe-labelled cysteine peptide fold change (10 µM) | probe-labelled cysteine peptide fold change (50 µM) |
| --- | --- | --- |
| TPP2_P29144_1218_NCIQLMK (UniProt P29144) | 0.162 | 0.0877 |
| TRIM28_Q13263_666+669_VCQKPGDLVMCNQCEFCFHLDCHLPALQDVPGEEWSCSLCHVLPDLK (UniProt Q13263) | 0.0214 | 0.0569 |
| TPP2_P29144_28_ETGAASFLCR (UniProt P29144) | 0.0614 | 0.0545 |
| TRAPPC13_A5PLN9_127_LNLSASNAAVAELKPDCCIDDVIHHEVK (UniProt A5PLN9) | -0.131 | -0.00889 |
| TRA2A_Q13595_120_ANPDPNTCLGVFGLSLYTTER (UniProt Q13595) | -0.000107 | 0.161 |
| TRIM33_Q9UPN9_943_DIGKPEVEYDCDNLQHSK (UniProt Q9UPN9) | -0.156 | -0.239 |
| TRIP4_Q15650_187_LINNCLICGR (UniProt Q15650) | -0.00768 | -0.204 |
| TRIM38_O00635_188_NLQCFLHEEEK (UniProt O00635) | -0.223 | -0.256 |
| TRIM21_P19474_114_ALCWVCAQSR (UniProt P19474) | 0.148 | 0.024 |
| TRMT10C_Q7L0Y3_246_RNVDPFHIYFCNLK (UniProt Q7L0Y3) | 0.156 | 0.0708 |
| TREX1_Q9NSU2_208_LYGQSPPDSHTAEGDVLALLSICQWRPQALLR (UniProt Q9NSU2) | 0.283 | 0.219 |
| TRIOBP_Q9H2D6_2280_SSCELEVLLR (UniProt Q9H2D6) | -0.23 | 0.0743 |
| TRIP6_Q15654_362+365+368_AYHPGCFTCVVCHR (UniProt Q15654) | -0.0574 | -0.156 |
| TRIM25_Q14258_176+179_LREFFCPEHSECICHICLVEHK (UniProt Q14258) | -0.0726 | -0.283 |
| TRIM38_O00635_58_QETFCCPQCR (UniProt O00635) | -0.0831 | -0.146 |
